# PubChem BioAssay AID1259405, NCATS | 2018
# Aim: 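Knock-downs that lift recombinant protein yield in hamster ovary cells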 (primary screen)
# System: Chinese hamster CHO-K1 ovary cells with stable secreted eGFP expression
# Reagents: single siRNA against mouse genes, 0.8 pmol siRNA per well (2 µl of 400 nM stock)
# Timing: 3 days
# Measurement: 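Per-well intracellular GFP measured by laser scanning cytometry, plus viability from ATP luminescence, each relative to plate median of non-targeting control wells, in %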
# Direction: GFP, % of control: higher = more GFP per well, higher productivity; viability (ATP), % of control: higher = more viable cells (more ATP)
# Hit rule: 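a knock-down is called active if GFP reaches 120% or more of non-targeting control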
# The deposit covers about 50,000 reagents; shown is a part drawn at random. About 4,000 of them (8%) were called active. 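Mouse siRNA library applied to hamster cells; one well for each siRNA.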 Reagents against one gene are numbered here. No sequences are given here.
gene,siRNA no.,"GFP, % of control","viability (ATP), % of control",Outcome
Gjd4,1,164,84.5,active
Gjd4,2,58.8,74,inactive
Gjd4,3,37.8,52,inactive
Mtmr4,1,81.7,86.5,inactive
Mtmr4,2,82.5,60.1,inactive
Mtmr4,3,87.8,80.5,inactive
Edem2,1,56.5,51,inactive
Edem2,2,79.6,99.9,inactive
Edem2,3,52.8,73.7,inactive
Sfxn3,1,81.2,78.8,inactive
Sfxn3,2,61.9,81.6,inactive
Sfxn3,3,33.4,44.7,inactive
Shroom3,1,59.1,63.1,inactive
Shroom3,2,73.1,65.7,inactive
Shroom3,3,34.2,48.3,inactive
Cenpq,1,76.9,46.8,inactive
Cenpq,2,74.7,42.3,inactive
Cenpq,3,51,84,inactive
Wfdc18,1,41.6,112,inactive
Wfdc18,2,68.2,81.8,inactive
Wfdc18,3,98.9,104,inactive
Spmap2,1,71.7,56.6,inactive
Spmap2,2,40,63.1,inactive
Spmap2,3,126,119,active
Vps37b,1,59.6,62.5,inactive
Vps37b,2,109,102,inactive
Vps37b,3,145,147,active
Slfn9,1,89.6,66.3,inactive
Slfn9,2,92,116,inactive
Slfn9,3,77,75.2,inactive
Runx3,1,45.7,49.3,inactive
Runx3,2,62.8,73.1,inactive
Runx3,3,78,89.1,inactive

Sorted by “viability (ATP), % of control” (high to low): some entries from above
gene,siRNA no.,"GFP, % of control","viability (ATP), % of control",Outcome
Spmap2,3,126,119,active
Wfdc18,1,41.6,112,inactive
Wfdc18,3,98.9,104,inactive
Cenpq,3,51,84,inactive
Wfdc18,2,68.2,81.8,inactive
Spmap2,2,40,63.1,inactive
Vps37b,1,59.6,62.5,inactive
Spmap2,1,71.7,56.6,inactive
Cenpq,1,76.9,46.8,inactive
Cenpq,2,74.7,42.3,inactive

The listing continues:
gene,siRNA no.,"GFP, % of control","viability (ATP), % of control",Outcome
Sirt5,1,74.5,77.2,inactive
Sirt5,2,18.1,43,inactive
Bmi1,1,84.1,106,inactive
Bmi1,2,89.8,77.8,inactive
Cebpd,1,64.8,38.9,inactive
Cebpd,2,78.2,73.7,inactive
Cebpd,3,96.9,92.4,inactive
Rab25,1,109,107,inactive
Rab25,2,102,102,inactive
Rab25,3,54.9,84.5,inactive
Abhd11,1,125,87.3,active
Abhd11,2,60,70.4,inactive
Abhd11,3,79.2,72.6,inactive
Strn4,1,62.8,61.8,inactive
Strn4,2,123,127,active
Strn4,3,147,149,active
Tas2r119,1,83.3,73.3,inactive
Tas2r119,2,67.7,89,inactive
Tas2r119,3,72.5,71,inactive
Trp73,1,89.7,96.2,inactive
Trp73,2,106,109,inactive
Trp73,3,80.6,84.2,inactive
Agap1,1,84.8,89,inactive
Agap1,2,80.8,80.3,inactive
Agap1,3,53.9,55.2,inactive
2300002M23Rik,1,112,72.4,inactive
2300002M23Rik,2,21.1,29,inactive
2300002M23Rik,3,73.9,80.2,inactive
Polr1has,1,44.9,39,inactive
Polr1has,2,64.3,82.5,inactive
Polr1has,3,50.4,89.5,inactive
Mapkapk2,1,68,74.6,inactive
Mapkapk2,2,52.7,31.1,inactive
Mapkapk2,3,101,96.1,inactive
Kir3dl2,1,159,72.8,active
Kir3dl2,2,101,73.7,inactive
Kir3dl2,3,122,87.1,active
Naa15,1,104,99.8,inactive
Naa15,2,89.1,121,inactive
Naa15,3,108,113,inactive
Fam135a,1,65,69.6,inactive
Fam135a,2,118,84.3,inactive
Fam135a,3,84.5,97.1,inactive
Kirrel2,1,51.1,51.1,inactive
Kirrel2,2,62,35.4,inactive
Kirrel2,3,74.9,45.3,inactive
Dok7,1,66.9,45.1,inactive
Dok7,2,83,79.6,inactive
Dok7,3,95.3,84.4,inactive
Golga5,1,67.4,74.5,inactive
Golga5,2,67.7,44.2,inactive
Golga5,3,118,70.5,inactive
